These are yes or no findings as the source states them, for the method shown. Some entries that bind do so weakly or less than the wild type.

Chains of the proteins cited; added tags and fusions are not shown. Lines headed by an entry give the natural chain unless they say otherwise; changes in a name come on top.
UniProt Q9BQB4: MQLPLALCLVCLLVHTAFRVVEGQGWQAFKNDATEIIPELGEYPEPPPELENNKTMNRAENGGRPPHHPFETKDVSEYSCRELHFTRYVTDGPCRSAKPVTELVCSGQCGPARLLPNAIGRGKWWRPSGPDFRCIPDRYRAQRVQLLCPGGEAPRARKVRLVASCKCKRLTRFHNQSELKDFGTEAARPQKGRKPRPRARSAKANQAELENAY

Test [1] addresses T1, BMP-6 (UniProt P22004 382-513, limits assumed).
T1 sequence (looked up): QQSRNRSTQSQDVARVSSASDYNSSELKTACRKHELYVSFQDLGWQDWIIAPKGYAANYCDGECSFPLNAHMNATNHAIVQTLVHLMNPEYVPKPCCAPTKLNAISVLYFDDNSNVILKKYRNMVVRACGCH
Kind of test: immunoprecipitation on FLAG affinity matrix, western blot.

The target in test [2] is T1, BMP-6. Briefly: anti-FLAG immunoprecipitation of FLAG-tagged Beer incubated with BMP-6, anti-BMP-6 western blot.

As for “FLAG epitope-tagged Beer (human Beer, secretion signal removed, C-terminal FLAG tag, from baculovirus-infected SF9 cells) (from UniProt Q9BQB4 24-213)”, the binding result with BMP-6 [1] and in the test with BMP-6 [2] was “binds” in each case.

For the origin of these results see US20100151524A1 (DARWIN DISCOVERY, published 2010).
